The values below come from patent US20220041706A1.

Protein sequences, listed by entry. Tags and fused reporters are not part of them. Lines headed by an entry give the natural chain unless they say otherwise; changes in a name come on top.
UniProt O95750: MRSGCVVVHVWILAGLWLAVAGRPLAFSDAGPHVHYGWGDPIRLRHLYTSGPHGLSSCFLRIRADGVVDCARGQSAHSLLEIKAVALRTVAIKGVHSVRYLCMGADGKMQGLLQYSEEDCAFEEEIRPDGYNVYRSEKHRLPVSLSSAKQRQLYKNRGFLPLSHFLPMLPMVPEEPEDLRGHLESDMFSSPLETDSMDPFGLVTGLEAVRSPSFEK

Results are given in words; binding and its absence hold for the method and conditions named. Some entries that bind do so weakly or less than the wild type.

This assay concerns the target T1, FGFR4-hFc (UniProt P22455).
T1 sequence (looked up): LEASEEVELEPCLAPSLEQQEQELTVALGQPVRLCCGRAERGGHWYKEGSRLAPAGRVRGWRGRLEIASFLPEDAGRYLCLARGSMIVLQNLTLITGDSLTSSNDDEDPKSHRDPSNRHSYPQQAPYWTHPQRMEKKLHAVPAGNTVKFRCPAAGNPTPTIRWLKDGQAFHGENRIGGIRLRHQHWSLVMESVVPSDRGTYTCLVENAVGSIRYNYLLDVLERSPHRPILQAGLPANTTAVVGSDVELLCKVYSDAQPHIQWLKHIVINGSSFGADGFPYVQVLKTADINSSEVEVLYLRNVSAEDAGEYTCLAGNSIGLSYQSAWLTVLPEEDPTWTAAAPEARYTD
Nature of the assay: SPR (Biacore), FGFR4-hFc captured, 20 µg/ml heparin.

Turning to “FGF19^ΔNT, N-terminus deletion variant of FGF19 (residues Arg43-Lys216 of SEQ ID NO: 1), C-terminal His-Avi tag (from UniProt O95750 43-216) (ligand)”, the binding entry is “binds”.
